Measurements from PubChem BioAssay AID493014 (National Center for Advancing Translational Sciences (NCATS), 2011).
Some of the results follow. Shown are side measurements of this screen, not its main read-out; they come without a call. The list favours compounds with an active or inconclusive main result. Potencies come from curve fits of mixed quality, noted in brackets.

Test: qHTS Assay to Find Inhibitors of Chronic Active B-Cell Receptor Signaling
Details: ABC-DLBCL IkBa-CBG/CBR reporter, luminescence ratio (green luciferase fused to IkBa over red control in TMD8 lymphoma cells), 4 h
In short: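 TMD8 human ABC-DLBCL cells with doxycycline-inducible IκBα–green luciferase fusion and unfused red luciferase, in 0.5% FBS medium; compounds up to 46 uM, 4 h at 37C. Green/red luminescence ratio, filter-overlap corrected, fitted to concentration-response curves.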

[1] = measured here: CBR red luminescence, cell number
[2] = measured here: IkBa-CBG green luminescence

Compound	AC50 [1]	AC50 [2]
CC(C)(C)Nc1nc(NCc2cccnc2)nc(N2CCOCC2)n1	20.6 µM [rising, single point]	–
COc1ccc(CNC(=O)c2cc(-c3ccco3)on2)cc1	0.501 µM [falling, full curve]	–
Cc1nc(Nc2ccc3c(c2)OCO3)c2oc3ccccc3c2n1	10 µM [falling, partial curve, poor fit]	–
O=C(NCc1ccco1)/C(=C\c1ccco1)NC(=O)c1ccccc1Cl	3.55 µM [falling, single point]	–
Cc1cccc(C)c1NC(=O)CS(=O)CC(=O)NC1CCCc2ccccc21 (centres undefined)	23.1 µM [rising, single point]	–
COc1ccc([N+](=O)[O-])cc1N(CC(O)CN1CCCCC1)S(=O)(=O)c1ccc(C)cc1 (centres undefined)	11.2 µM [falling, partial curve, poor fit]	–
COC(=O)c1c(-c2cc(OC)cc(OC)c2)sc2ccc(OC)cc12	29.1 µM [falling, single point]	–
COc1cnc(-c2ccccc2)nc1Oc1ccc(C(C)(C)C)cc1	35.5 µM [falling, single point]	–
CCOc1ccc(-c2noc(CCCC(=O)NCC3CCCO3)n2)cc1OC (centres undefined)	14.1 µM [falling, partial curve, poor fit]	–
Cc1cc(NC(=O)C2CCCC2)n(-c2nc3ccccc3[nH]2)n1	0.112 µM [falling, full curve, poor fit]	–
CCOc1cc(/C=N/NS(=O)(=O)c2ccccc2)ccc1OS(=O)(=O)c1ccc(C)cc1	4.61 µM [falling, single point]	–
COc1ccc(CCC(=O)Nc2cc(S(=O)(=O)N3CCOCC3)ccc2OC(C)C)cc1	–	29.1 µM [falling, partial curve, poor fit]
O=C(/C=C(\O)c1ccccc1)C(=O)NNC(=O)c1ccccc1	4.47 µM [falling, partial curve]	–
Cc1cccc(NC(=O)CCn2nc(-c3ccccc3)c3ccccc3c2=O)c1	35.5 µM [falling, single point]	–
CCC(=O)Nc1cccc(NC(=O)c2ccc3c(c2)OCO3)c1	6.51 µM [falling, partial curve]	–
NS(=O)(=O)c1ccc(CCNCc2ccccc2OCc2ccc(Cl)cc2)cc1	17.8 µM [falling, single point]	–
O=C(Nc1ccccn1)c1cccc(S(=O)(=O)N2CCCCC2)c1	–	23.1 µM [rising, partial curve, poor fit]
COCCn1c(Cc2ccccc2)nnc1SCC(=O)N1CCCCC1C (centres undefined)	3.66 µM [falling, partial curve, poor fit]	–
CC1(c2ccccc2)NC(=O)N(CC(=O)Nc2ccc(Cl)c(S(=O)(=O)N3CCCCC3)c2)C1=O (centres undefined)	3.98 µM [rising, partial curve, poor fit]	–
N#CC1=C(N)N(c2ccc(F)cc2)C2=C(C1c1ccc(O)cc1)S(=O)(=O)CC2 (centres undefined)	5.62 µM [falling, partial curve]	–
O=C(Nc1nccs1)C1CCN(S(=O)(=O)c2ccc(Cl)c(C(F)(F)F)c2)CC1	5.17 µM [falling, single point]	–
CC(C)N1CCc2c(sc(NC(=O)c3nc4ccccc4s3)c2C(N)=O)C1	2.82 µM [falling, partial curve, poor fit]	–

Compound	AC50 [1]	AC50 [2]
O=C(Cc1ccsc1)NNC(=O)c1ccc(F)cc1	18.4 µM [falling, single point]	–
COc1ccc(/C=C2\SC(=S)N(CCC(=O)N(CCO)c3ccccc3)C2=O)cc1OC	11.2 µM [falling, partial curve]	–
O=C1CCCCCN1Cc1nnc(SCc2nc3ccccc3s2)n1-c1ccccn1	0.794 µM [rising, full curve, poor fit]	–
O=C(Nc1cccc(S(=O)(=O)N2CCCCC2)c1)c1ccc(Cl)nc1	7.31 µM [falling, partial curve, poor fit]	–
O=C(c1ccc(Cl)c(Cl)c1)c1cnc(Nc2ccccc2)s1	0.708 µM [falling, partial curve, poor fit]	–
NC(=S)N/N=C/c1ccc(C(F)(F)F)cc1	1.3 µM [falling, partial curve, poor fit]	–
COc1ccc(N(Cc2cc3ccccc3[nH]c2=O)S(C)(=O)=O)cc1	9.2 µM [falling, partial curve]	–
CCCCn1c(N)c(N(CCC(C)C)C(=O)CSc2nnc3ccccn23)c(=O)[nH]c1=O	7.31 µM [rising, partial curve, poor fit]	–
O=S(=O)(NCc1ccc(Cl)cc1)c1cccc2cccnc12	0.562 µM [falling, full curve, poor fit]	–
Cc1ccc(-c2noc(CCC(=O)N3CCCC3)n2)cc1	11.2 µM [rising, partial curve, poor fit]	–
O=C(CCN1C(=O)/C(=C/C=C/c2ccccc2)SC1=S)Nc1nc2ccccc2s1	6.51 µM [falling, partial curve]	–
C/C(=N\NC(=O)CC(C)C)c1c(C(F)(F)F)[nH]n(-c2nc3ccccc3s2)c1=O	10 µM [falling, partial curve, poor fit]	–
O=C1C=C(/C=C/c2ccccc2)C[C@@H](c2ccc3c(c2)OCO3)C1	29.1 µM [rising, single point]	–
COc1cccc(C2CC(=O)Nc3c2c(=O)nc2c(C)cccn32)c1OC (centres undefined)	0.316 µM [rising, partial curve, poor fit]	–
CC(=O)c1cccc(OCC(=O)NC2CCCCCC2)c1	20.6 µM [falling, single point]	–
COC(=O)c1cc(OC)c(OC)cc1NC(=O)c1cc(OC)cc(OC)c1	3.16 µM [falling, partial curve]	–
CCc1cccc2c(C(=O)C(NCCCOC)c3ccccc3)c[nH]c12 (centres undefined)	10 µM [falling, partial curve]	–
COc1cccc(NC(=O)c2ccc(NC(=O)C(C)C)cc2)c1	–	11.2 µM [rising, partial curve, poor fit]
COc1ccc(C2(CNC(=O)c3ccccc3[N+](=O)[O-])CCOCC2)cc1	28.2 µM [rising, single point]	–
Cn1c(=O)c2c(nc3n2CCCN3CCc2ccccc2)n(C)c1=O	2.51 µM [falling, full curve, poor fit]	–
CSc1cccc(N/C(=N/S(=O)(=O)c2ccccc2)NN)c1	8.91 µM [falling, single point]	–
Cc1ccc(NC(=O)Nc2ccc(F)c(Cl)c2)cc1	14.1 µM [falling, single point]	–

Part of the list above in order of SMILES length, high to low:
Compound	AC50 [1]	AC50 [2]
COc1ccc(/C=C2\SC(=S)N(CCC(=O)N(CCO)c3ccccc3)C2=O)cc1OC	11.2 µM [falling, partial curve]	–
O=C(CCN1C(=O)/C(=C/C=C/c2ccccc2)SC1=S)Nc1nc2ccccc2s1	6.51 µM [falling, partial curve]	–
O=C(Nc1cccc(S(=O)(=O)N2CCCCC2)c1)c1ccc(Cl)nc1	7.31 µM [falling, partial curve, poor fit]	–
O=C(c1ccc(Cl)c(Cl)c1)c1cnc(Nc2ccccc2)s1	0.708 µM [falling, partial curve, poor fit]	–
CC(=O)c1cccc(OCC(=O)NC2CCCCCC2)c1	20.6 µM [falling, single point]	–
O=C(Cc1ccsc1)NNC(=O)c1ccc(F)cc1	18.4 µM [falling, single point]	–

More entries:

Compound	AC50 [1]	AC50 [2]
Cc1[nH]c2ccccc2c1C(c1ccncc1)N1CCN(c2ccc(F)cc2)CC1 (centres undefined)	16.4 µM [falling, single point]	–
Cc1ccc(C)c(NC(=S)N/N=C2/CCCCc3ccccc32)c1	23.1 µM [rising, partial curve, poor fit]	–
Cc1ccc(C(=O)NC(Cc2c[nH]c3ccccc23)C(=O)O)o1 (centres undefined)	23.1 µM [falling, single point]	–
Cc1occc1C(=O)N/N=C/C=C/c1ccccc1	22.4 µM [falling, partial curve, poor fit]	–
COC(=O)N1C(=O)[C@@](c2ccccc2)(C2CCCC2)N1C(=O)OC	8.91 µM [falling, partial curve, poor fit]	–
Cc1ccc(NC(=O)CCCc2ccccc2)c([N+](=O)[O-])c1	22.4 µM [rising, partial curve]	–
O=C(Cn1ncc2c3ccccc3n(Cc3ccccc3F)c2c1=O)NCCCN1CCCC1=O	11.2 µM [falling, partial curve, poor fit]	–
C/C(=N\OC(=O)c1ccc(F)cc1)c1ccc(F)c(F)c1	35.5 µM [rising, single point]	–
Cn1cnnc1SCc1ccccc1Br	20.6 µM [rising, single point]	–
CC(C)CN(C(=O)C1CC1)C1CCS(=O)(=O)C1 (centres undefined)	20.6 µM [rising, single point]	–
O=c1cnnc(SCCc2ccccc2)[nH]1	16.4 µM [falling, partial curve]	–
CC1(C(=O)Nc2nc3ccccc3s2)CC1(Br)Br (centres undefined)	0.112 µM [falling, full curve, poor fit]	–
CC1C(=O)N2CCCc3cc(NS(=O)(=O)c4ccc(F)cc4)cc1c32 (centres undefined)	20.6 µM [falling, single point]	–
CCC(C)NC(=O)C1CCN(S(=O)(=O)c2cccnc2)CC1 (centres undefined)	16.4 µM [falling, partial curve]	–
CCCn1nnc(NC(=O)c2ccc(Br)cc2)n1	10.3 µM [falling, partial curve, poor fit]	–
CN(Cc1ccccc1)Cc1nc2c(c(=O)n(C)c(=O)n2C)n1Cc1ccc(F)cc1	11.2 µM [falling, partial curve]	–
COc1cnc(-c2ccccc2)nc1Oc1cccc(C)c1C	5.01 µM [falling, partial curve, poor fit]	–
CC1(C#CC[N+]2(C)CCCCC2)CCC2C(O1)c1ccccc1OC2(C)C (centres undefined)	7.94 µM [rising, partial curve, poor fit]	–
CCN1CCN(C(=O)Cn2ncc3c([nH]c4ccccc43)c2=O)CC1	12.6 µM [rising, single point]	–
O=C(NCCC1CCCCN1S(=O)(=O)c1ccccc1)C(=O)Nc1ccc(F)cc1 (centres undefined)	2.59 µM [falling, partial curve]	–
